By UniProt entry, the sequences of proteins in these tests, tags left out. Where a name states a change or a piece, a line headed by the entry shows the natural chain unless it says otherwise.
UniProt Q99814: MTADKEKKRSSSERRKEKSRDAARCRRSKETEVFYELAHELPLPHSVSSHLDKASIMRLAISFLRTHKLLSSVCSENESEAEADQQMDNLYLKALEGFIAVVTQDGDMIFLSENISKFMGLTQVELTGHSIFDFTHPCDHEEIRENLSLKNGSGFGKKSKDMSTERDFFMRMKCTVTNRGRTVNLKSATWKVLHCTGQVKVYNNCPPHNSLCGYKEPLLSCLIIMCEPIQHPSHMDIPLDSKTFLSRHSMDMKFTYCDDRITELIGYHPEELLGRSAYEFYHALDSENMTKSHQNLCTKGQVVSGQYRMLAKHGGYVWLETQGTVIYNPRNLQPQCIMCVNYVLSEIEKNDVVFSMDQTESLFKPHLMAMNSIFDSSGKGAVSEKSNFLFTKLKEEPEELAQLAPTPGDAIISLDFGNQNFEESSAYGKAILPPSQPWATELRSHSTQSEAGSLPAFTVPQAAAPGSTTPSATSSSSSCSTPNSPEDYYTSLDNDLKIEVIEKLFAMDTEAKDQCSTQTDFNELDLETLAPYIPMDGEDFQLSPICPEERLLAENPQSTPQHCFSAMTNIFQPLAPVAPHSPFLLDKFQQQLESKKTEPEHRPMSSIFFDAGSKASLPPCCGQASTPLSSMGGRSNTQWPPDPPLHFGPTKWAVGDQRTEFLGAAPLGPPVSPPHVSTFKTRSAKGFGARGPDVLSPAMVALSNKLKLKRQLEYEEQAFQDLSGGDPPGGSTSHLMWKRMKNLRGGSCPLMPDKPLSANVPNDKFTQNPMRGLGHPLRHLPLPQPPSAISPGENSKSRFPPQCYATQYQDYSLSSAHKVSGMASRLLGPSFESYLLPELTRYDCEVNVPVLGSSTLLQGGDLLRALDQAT

According to patent publication US6395548:

How the values were obtained:
[1] = target: EPAS1 lacking transactivation domain (dominant negative) del486-639 or del486-690 (Homo sapiens) (UniProt Q99814); experiment: binding assay; details: retained heterodimer formation and binding to HIF-1 site; method not stated; cited from earlier work
[2] = test system: EPAS1 basic region deletion deletion of basic (bHLH) region SEQ ID NO:3 (Homo sapiens); experiment: activity in cells; details: VEGF promoter reporter; activation completely abolished; protein in cells; only the site is given

For GCCCTACGTGCTGTCTCA (double strand), the binding result [1] is given as “binds” and the “activity on this sequence” value [2] is given as “not active”.

For at least one entry, the source does not settle the construct or the ends of the probe. For some assays here: No signal at the amounts used counts as a negative.
